Experimental data published in patent US20200270309A1 (NANJING ANJI BIOLOGICAL TECHNOLOGY CO., LTD, priority 2017, published 2020).
Strings that start with PEPTIDE1 are HELM notation: dots part the residues, brackets hold end groups and non-standard residues.

Test: general procedure: Fmoc solid-phase peptide synthesis; Fmoc-wang-resin
Conditions: whole synthesis, analytical RP-HPLC

Substance | final HPLC purity
PEPTIDE1{[Mal(CH2)1CO].R.G.A.D.R.A.G.G.G.G.R.G.D}$$$$V2.0 | 97.94%
PEPTIDE1{[Mal(CH2)2CO].R.G.A.D.R.A.G.G.G.G.R.G.D}$$$$V2.0 | 97.44%
PEPTIDE1{[Mal(CH2)3CO].R.G.A.D.R.A.G.G.G.G.R.G.D}$$$$V2.0 | 97.77%
PEPTIDE1{[Mal(CH2)4CO].R.G.A.D.R.A.G.G.G.G.R.G.D}$$$$V2.0 | 98.53%
PEPTIDE1{[Mal(CH2)5CO].R.G.A.D.R.A.G.G.G.G.R.G.D}$$$$V2.0 | 98.62%
PEPTIDE1{[Mal(CH2)6CO].R.G.A.D.R.A.G.G.G.G.R.G.D}$$$$V2.0 | 98.20%
PEPTIDE1{[Mal(CH2)7CO].R.G.A.D.R.A.G.G.G.G.R.G.D}$$$$V2.0 | 97.57%
PEPTIDE1{[Mal(CH2)8CO].R.G.A.D.R.A.G.G.G.G.R.G.D}$$$$V2.0 | 98.58%
PEPTIDE1{[Mal(CH2)9CO].R.G.A.D.R.A.G.G.G.G.R.G.D}$$$$V2.0 | 98.60%
PEPTIDE1{[Mal(CH2)10CO].R.G.A.D.R.A.G.G.G.G.R.G.D}$$$$V2.0 | 98.36%
PEPTIDE1{[Mal(CH2)11CO].R.G.A.D.R.A.G.G.G.G.R.G.D}$$$$V2.0 | 98.19%
PEPTIDE1{[Mal(CH2)12CO].R.G.A.D.R.A.G.G.G.G.R.G.D}$$$$V2.0 | 98.28%
PEPTIDE1{[Mal-EO1-C1-CO].R.G.A.D.R.A.G.G.G.G.R.G.D}$$$$V2.0 | 97.46%
PEPTIDE1{[Mal-EO1-C2-CO].R.G.A.D.R.A.G.G.G.G.R.G.D}$$$$V2.0 | 97.77%
PEPTIDE1{[Mal-EO1-C3-CO].R.G.A.D.R.A.G.G.G.G.R.G.D}$$$$V2.0 | 98.27%
PEPTIDE1{[Mal-EO1-C4-CO].R.G.A.D.R.A.G.G.G.G.R.G.D}$$$$V2.0 | 98.12%
PEPTIDE1{[Mal-EO1-C5-CO].R.G.A.D.R.A.G.G.G.G.R.G.D}$$$$V2.0 | 98.70%
PEPTIDE1{[Mal-EO1-C6-CO].R.G.A.D.R.A.G.G.G.G.R.G.D}$$$$V2.0 | 98.75%
PEPTIDE1{[Mal-EO1-C7-CO].R.G.A.D.R.A.G.G.G.G.R.G.D}$$$$V2.0 | 98.28%
PEPTIDE1{[Mal-EO2-C1-CO].R.G.A.D.R.A.G.G.G.G.R.G.D}$$$$V2.0 | 98.14%
PEPTIDE1{[Mal-EO2-C2].R.G.A.D.R.A.G.G.G.G.R.G.D}$$$$V2.0 | 97.50%
PEPTIDE1{[Mal-EO2-C3].R.G.A.D.R.A.G.G.G.G.R.G.D}$$$$V2.0 | 97.85%
PEPTIDE1{[Mal-EO2-C4].R.G.A.D.R.A.G.G.G.G.R.G.D}$$$$V2.0 | 98.68%
PEPTIDE1{[Mal-EO2-C5].R.G.A.D.R.A.G.G.G.G.R.G.D}$$$$V2.0 | 97.62%

Substance | final HPLC purity
PEPTIDE1{[Mal-EO2-C6].R.G.A.D.R.A.G.G.G.G.R.G.D}$$$$V2.0 | 98.32%
PEPTIDE1{[Mal-EO2-C7].R.G.A.D.R.A.G.G.G.G.R.G.D}$$$$V2.0 | 98.65%
PEPTIDE1{[Mal-EO3-C1].R.G.A.D.R.A.G.G.G.G.R.G.D}$$$$V2.0 | 97.71%
PEPTIDE1{[Mal-EO3-C2].R.G.A.D.R.A.G.G.G.G.R.G.D}$$$$V2.0 | 98.19%
PEPTIDE1{[Mal-EO3-C3].R.G.A.D.R.A.G.G.G.G.R.G.D}$$$$V2.0 | 98.75%
PEPTIDE1{[Mal-EO3-C4].R.G.A.D.R.A.G.G.G.G.R.G.D}$$$$V2.0 | 97.89%
PEPTIDE1{[Mal-EO3-C5].R.G.A.D.R.A.G.G.G.G.R.G.D}$$$$V2.0 | 98.61%
PEPTIDE1{[Mal-EO3-C6].R.G.A.D.R.A.G.G.G.G.R.G.D}$$$$V2.0 | 97.69%
PEPTIDE1{[Mal-EO3-C7].R.G.A.D.R.A.G.G.G.G.R.G.D}$$$$V2.0 | 98.37%
PEPTIDE1{[Mal-EO4-C1].R.G.A.D.R.A.G.G.G.G.R.G.D}$$$$V2.0 | 98.15%
PEPTIDE1{[Mal-EO4-C2].R.G.A.D.R.A.G.G.G.G.R.G.D}$$$$V2.0 | 98.49%
PEPTIDE1{[Mal-EO4-C3].R.G.A.D.R.A.G.G.G.G.R.G.D}$$$$V2.0 | 97.97%
PEPTIDE1{[Mal-EO4-C4].R.G.A.D.R.A.G.G.G.G.R.G.D}$$$$V2.0 | 97.60%
PEPTIDE1{[Mal-EO4-C5].R.G.A.D.R.A.G.G.G.G.R.G.D}$$$$V2.0 | 98.32%
PEPTIDE1{[Mal-EO4-C6].R.G.A.D.R.A.G.G.G.G.R.G.D}$$$$V2.0 | 97.57%
PEPTIDE1{[Mal-EO4-C7].R.G.A.D.R.A.G.G.G.G.R.G.D}$$$$V2.0 | 97.54%
PEPTIDE1{[Mal-pPh-C1-CO].R.G.A.D.R.A.G.G.G.G.R.G.D}$$$$V2.0 | 98.00%
PEPTIDE1{[Mal-pPh-C2-CO].R.G.A.D.R.A.G.G.G.G.R.G.D}$$$$V2.0 | 97.50%
PEPTIDE1{[Mal-pPh-C3-CO].R.G.A.D.R.A.G.G.G.G.R.G.D}$$$$V2.0 | 98.68%
PEPTIDE1{[Mal-pPh-C4-CO].R.G.A.D.R.A.G.G.G.G.R.G.D}$$$$V2.0 | 98.34%
PEPTIDE1{[Mal-pPh-C5-CO].R.G.A.D.R.A.G.G.G.G.R.G.D}$$$$V2.0 | 98.34%
PEPTIDE1{[Mal-pPh-C6-CO].R.G.A.D.R.A.G.G.G.G.R.G.D}$$$$V2.0 | 97.48%
PEPTIDE1{[Mal-pPh-C7-CO].R.G.A.D.R.A.G.G.G.G.R.G.D}$$$$V2.0 | 97.59%
PEPTIDE1{[Mal-pPh-C8-CO].R.G.A.D.R.A.G.G.G.G.R.G.D}$$$$V2.0 | 97.70%

Substance | final HPLC purity
PEPTIDE1{[Mal-pPh-C9-CO].R.G.A.D.R.A.G.G.G.G.R.G.D}$$$$V2.0 | 98.11%
PEPTIDE1{[Mal-pPh-C10-CO].R.G.A.D.R.A.G.G.G.G.R.G.D}$$$$V2.0 | 98.74%
PEPTIDE1{[Mal-pPh-C11-CO].R.G.A.D.R.A.G.G.G.G.R.G.D}$$$$V2.0 | 98.43%
PEPTIDE1{[Mal-pPh-C12-CO].R.G.A.D.R.A.G.G.G.G.R.G.D}$$$$V2.0 | 97.96%
PEPTIDE1{[MalPEG5C1].R.G.A.D.R.A.G.G.G.G.R.G.D}$$$$V2.0 | 97.98%
PEPTIDE1{[MalPEG5C2].R.G.A.D.R.A.G.G.G.G.R.G.D}$$$$V2.0 | 97.94%
PEPTIDE1{[MalPEG5C3].R.G.A.D.R.A.G.G.G.G.R.G.D}$$$$V2.0 | 98.37%
PEPTIDE1{[MalPEG5C4].R.G.A.D.R.A.G.G.G.G.R.G.D}$$$$V2.0 | 98.25%
PEPTIDE1{[MalPEG5C5].R.G.A.D.R.A.G.G.G.G.R.G.D}$$$$V2.0 | 97.78%
PEPTIDE1{[MalPEG5C6].R.G.A.D.R.A.G.G.G.G.R.G.D}$$$$V2.0 | 97.76%
PEPTIDE1{[MalPEG5C7].R.G.A.D.R.A.G.G.G.G.R.G.D}$$$$V2.0 | 98.44%
PEPTIDE1{[MalPEG6C1].R.G.A.D.R.A.G.G.G.G.R.G.D}$$$$V2.0 | 98.30%
PEPTIDE1{[MalPEG6C2].R.G.A.D.R.A.G.G.G.G.R.G.D}$$$$V2.0 | 98.74%
PEPTIDE1{[MalPEG6C3].R.G.A.D.R.A.G.G.G.G.R.G.D}$$$$V2.0 | 98.21%
PEPTIDE1{[MalPEG6C4].R.G.A.D.R.A.G.G.G.G.R.G.D}$$$$V2.0 | 97.43%
PEPTIDE1{[MalPEG6C5].R.G.A.D.R.A.G.G.G.G.R.G.D}$$$$V2.0 | 97.91%
PEPTIDE1{[MalPEG6C6].R.G.A.D.R.A.G.G.G.G.R.G.D}$$$$V2.0 | 97.69%
PEPTIDE1{[MalPEG6C7].R.G.A.D.R.A.G.G.G.G.R.G.D}$$$$V2.0 | 97.57%
PEPTIDE1{[oMalPh(CH2)1CO].R.G.A.D.R.A.G.G.G.G.R.G.D}$$$$V2.0 | 97.56%
PEPTIDE1{[oMalPh(CH2)2CO].R.G.A.D.R.A.G.G.G.G.R.G.D}$$$$V2.0 | 97.94%
PEPTIDE1{[oMalPh(CH2)3CO].R.G.A.D.R.A.G.G.G.G.R.G.D}$$$$V2.0 | 98.07%
PEPTIDE1{[oMalPh(CH2)4CO].R.G.A.D.R.A.G.G.G.G.R.G.D}$$$$V2.0 | 97.85%
